The list shows only some results of the screen, not a fair sample: it is rich in T/C values a quarter to a half above the control, in often repeated tests (any T/C) and in doses without a T/C. Other doses and runs of a compound stand elsewhere. T/C is the treated group as % of the vehicle group. Some doses have a count of surviving animals in place of a T/C: the source files T/C as zero there, which appears to mark a toxic dose or a test without result, not a measured value. Some survivor counts are full or nearly so, which does not show that the dose was tolerated: the source hardly ever lists a survival T/C far under the control, and the zero likely stands for such cases as well. Counts of survivors are from the toxicity check (mostly the fifth day) where no day follows; animals may have died later. Schedules are NCI's codes, read here as Q, the interval in days (D) or hours (H), X, the number of doses. Some schedule codes hold Z or #, which are not explained here. For survival time, this PubChem deposit counts one and a half times the control or more as active, and values a quarter to a half above the control carry no call in these data; other NCI protocols may use other cut-offs. Some T/C values carry the count of animals alive at the toxicity check (mostly the fifth day); without a count, all were alive then.
Tested on: L1210 leukemia ip in BDF1 mice, survival T/C
Experiment: NCI In Vivo Anticancer Drug Screen. Data for tumor model L1210 Leukemia (intraperitoneal) in B6D2F1 (BDF1) mice
Conditions: higher T/C = longer survival
[1] = T/C endpoint: mean survival time, dose: 100.0 mg/kg/injection, schedule: Q04DX003 (ip), vehicle: saline with Tween-80
[2] = T/C endpoint: mean survival time, dose: 400.0 mg/kg/injection, schedule: Q04DX003 (ip), vehicle: Klucel (hydroxypropylcellulose) (HPC)
[3] = T/C endpoint: mean survival time, dose: 0.08 mg/kg/injection, schedule: Q01DX Z (ip), vehicle: other
[4] = T/C endpoint: mean survival time, dose: 0.15 mg/kg/injection, schedule: Q01DX Z (ip), vehicle: other

Compound: CC(=O)OCC1OC(N2C(=O)/C(=C/c3ccc(Br)s3)SC2=S)C(OC(C)=O)C(OC(C)=O)C1OC(C)=O (centres undefined)
- survivor count (T/C endpoint: mean survival time, dose: 200.0 mg/kg/injection, schedule: Q01DX005 (ip), vehicle: other): 3 of 6
- survivor count (T/C endpoint: mean survival time, dose: 400.0 mg/kg/injection, schedule: Q01DX005 (ip), vehicle: other): 0 of 6

Compound: CC(C)NC(=O)CCSCCC(=O)NC(C)C
- T/C (T/C endpoint: mean survival time, dose: 100.0 mg/kg/injection, schedule: Q04DX002 (ip), vehicle: other): 136 % of control

Compound: COc1ccc(C2CC(=O)OC(=O)C2)cc1
- survivor count [1]: 6 of 6

Compound: CN(C)/N=N/c1ccn[nH]1
- survivor count (T/C endpoint: mean survival time, dose: 100.0 mg/kg/injection, schedule: Q01DX005 (ip), vehicle: saline): 3 of 3
- survivor count (T/C endpoint: mean survival time, dose: 200.0 mg/kg/injection, schedule: Q01DX005 (ip), vehicle: saline): 0 of 3

Compound: CC(C)(O)CNC(=O)c1cccc([N+](=O)[O-])c1
- survivor count [2]: 6 of 6

Compound: Clc1ccc(/C=N\N=C\c2ccc(Cl)c(Cl)c2)cc1Cl
- survivor count [1]: 6 of 6
- survivor count (T/C endpoint: mean survival time, dose: 200.0 mg/kg/injection, schedule: Q01DX009 (ip), vehicle: saline with Tween-80): 6 of 6

Compound: CS(=O)(=O)OCCN(CCOS(C)(=O)=O)c1ccc(C=Nc2ccc(C(=O)O)cc2)cc1
- T/C (T/C endpoint: mean survival time, dose: 5.0 mg/kg/injection, schedule: Q04DX003 (ip), vehicle: Klucel (hydroxypropylcellulose) (HPC)): 127 % of control
- T/C (T/C endpoint: mean survival time, dose: 10.0 mg/kg/injection, schedule: Q04DX003 (ip), vehicle: Klucel (hydroxypropylcellulose) (HPC)): 130 % of control
- survivor count (T/C endpoint: mean survival time, dose: 80.0 mg/kg/injection, schedule: Q04DX003 (ip), vehicle: Klucel (hydroxypropylcellulose) (HPC)): 6 of 6
- survivor count (T/C endpoint: mean survival time, dose: 100.0 mg/kg/injection, schedule: Q04DX003 (ip), vehicle: Klucel (hydroxypropylcellulose) (HPC)): 5 of 6
- survivor count (T/C endpoint: mean survival time, dose: 200.0 mg/kg/injection, schedule: Q04DX003 (ip), vehicle: Klucel (hydroxypropylcellulose) (HPC)): 4 of 6
- survivor count [2]: 4 of 6

Compound: Cc1c(O)ccc([N+](=O)[O-])c1O
- survivor count [1]: 6 of 6
- survivor count (T/C endpoint: mean survival time, dose: 200.0 mg/kg/injection, schedule: Q04DX003 (ip), vehicle: saline with Tween-80): 5 of 6
- survivor count (T/C endpoint: mean survival time, dose: 400.0 mg/kg/injection, schedule: Q04DX003 (ip), vehicle: saline with Tween-80): 2 of 6

Compound: CC1CC(C)CC(NC(=O)NCCCl)C1 (centres undefined)
- survivor count (T/C endpoint: mean survival time, dose: 100.0 mg/kg/injection, schedule: Q01DX009 (ip), vehicle: Klucel (hydroxypropylcellulose) (HPC)): 5 of 6
- survivor count (T/C endpoint: mean survival time, dose: 400.0 mg/kg/injection, schedule: Q01DX009 (ip), vehicle: Klucel (hydroxypropylcellulose) (HPC)): 4 of 6

Compound: O=C1C2CC3C(CC2C(=O)[N]1[Sn]([c]1ccccc1)([c]1ccccc1)[c]1ccccc1)C1(Cl)C(Cl)=C(Cl)C3(Cl)C1(Cl)Cl (centres undefined)
- survivor count (T/C endpoint: mean survival time, dose: 100.0 mg/kg/injection, schedule: Q01DX001 (ip), vehicle: carboxymethylcellulose (CMC)): 0 of 4
- survivor count (T/C endpoint: mean survival time, dose: 200.0 mg/kg/injection, schedule: Q01DX001 (ip), vehicle: carboxymethylcellulose (CMC)): 0 of 4
- survivor count (T/C endpoint: mean survival time, dose: 400.0 mg/kg/injection, schedule: Q01DX001 (ip), vehicle: carboxymethylcellulose (CMC)): 0 of 4

Compound: CCCCCC/C=C/C1CC(=O)OC1=O (centres undefined)
- survivor count (T/C endpoint: mean survival time, dose: 100.0 mg/kg/injection, schedule: Q01DX009 (ip), vehicle: saline with Tween-80): 6 of 6
- survivor count (T/C endpoint: mean survival time, dose: 400.0 mg/kg/injection, schedule: Q01DX009 (ip), vehicle: saline with Tween-80): 0 of 6

Compound: CC1CC(C)(O)CC(C(O)CC2CC(=O)NC(=O)C2)C1=O (centres undefined)
- T/C (T/C endpoint: mean survival time, dose: 0.04 mg/kg/injection, schedule: Q01DX009 (ip), vehicle: saline): 141 % of control
- T/C (T/C endpoint: mean survival time, dose: 0.05 mg/kg/injection, schedule: Q01DX Z (ip), vehicle: other): 128 % of control
- T/C [3]: 143 % of control
- survivor count [3]: 4 of 6
- T/C (T/C endpoint: mean survival time, dose: 0.08 mg/kg/injection, schedule: Q03HX024 (ip), vehicle: saline): 136 % of control
- T/C (T/C endpoint: mean survival time, dose: 0.15 mg/kg/injection, schedule: Q01DX005 (ip), vehicle: saline): 128 % of control
- T/C (T/C endpoint: mean survival time, dose: 0.15 mg/kg/injection, schedule: Q01DX Z (ip), vehicle: methylcellulose (MC)): 144 % of control
- T/C [4]: 148 % of control
- survivor count [4]: 0 of 6
- T/C (T/C endpoint: mean survival time, dose: 0.15 mg/kg/injection, schedule: Q03HX016 (ip), vehicle: saline): 141 % of control
- T/C (T/C endpoint: mean survival time, dose: 0.15 mg/kg/injection, schedule: Q04DX003 (ip), vehicle: saline): 128 % of control
- T/C (T/C endpoint: mean survival time, dose: 0.3 mg/kg/injection, schedule: Q01DX005 (ip), vehicle: saline): 129 % of control
- T/C (T/C endpoint: mean survival time, dose: 0.3 mg/kg/injection, schedule: Q01DX005 (iv), vehicle: saline): 131 % of control
- survivor count (T/C endpoint: mean survival time, dose: 0.3 mg/kg/injection, schedule: Q01DX009 (ip), vehicle: saline): 2 of 10
- survivor count (T/C endpoint: mean survival time, dose: 0.3 mg/kg/injection, schedule: Q01DX Z (ip), vehicle: other): 0 of 6
- T/C (T/C endpoint: mean survival time, dose: 0.3 mg/kg/injection, schedule: Q04DX003 (ip), vehicle: saline): 135 % of control
- T/C (T/C endpoint: mean survival time, dose: 0.3 mg/kg/injection, schedule: Q08DX002 (ip), vehicle: saline): 137 % of control
- T/C (T/C endpoint: mean survival time, dose: 0.6 mg/kg/injection, schedule: Q01DX005 (ip), vehicle: saline): 126 % of control
- survivor count (T/C endpoint: mean survival time, dose: 0.6 mg/kg/injection, schedule: Q01DX009 (ip), vehicle: saline): 0 of 10
- survivor count (T/C endpoint: mean survival time, dose: 0.6 mg/kg/injection, schedule: Q01DX Z (ip), vehicle: other): 0 of 6
- survivor count (T/C endpoint: mean survival time, dose: 0.6 mg/kg/injection, schedule: Q03HX016 (ip), vehicle: saline): 2 of 10
- T/C (T/C endpoint: mean survival time, dose: 0.6 mg/kg/injection, schedule: Q04DX003 (ip), vehicle: saline): 136 % of control
- survivor count (T/C endpoint: mean survival time, dose: 1.2 mg/kg/injection, schedule: Q01DX009 (oral), vehicle: saline): 4 of 10
- T/C (T/C endpoint: mean survival time, dose: 1.2 mg/kg/injection, schedule: Q04DX003 (ip), vehicle: saline): 145 % of control
- T/C (T/C endpoint: mean survival time, dose: 1.2 mg/kg/injection, schedule: Q08DX002 (ip), vehicle: saline): 136 % of control
- survivor count (T/C endpoint: mean survival time, dose: 2.4 mg/kg/injection, schedule: Q01DX009 (oral), vehicle: saline): 1 of 10
- T/C (T/C endpoint: mean survival time, dose: 2.4 mg/kg/injection, schedule: Q08DX002 (ip), vehicle: saline): 140 % of control
- T/C (T/C endpoint: mean survival time, dose: 4.8 mg/kg/injection, schedule: Q08DX002 (ip), vehicle: saline): 132 % of control [9 of 10 alive]
- survivor count (T/C endpoint: mean survival time, dose: 4.8 mg/kg/injection, schedule: Q11DX001 (oral), vehicle: saline): 2 of 10
- survivor count (T/C endpoint: mean survival time, dose: 4.8 mg/kg/injection, schedule: Q14DX008 (ip), vehicle: saline): 0 of 10
- survivor count (T/C endpoint: mean survival time, dose: 9.6 mg/kg/injection, schedule: Q11DX001 (oral), vehicle: saline): 0 of 10
- survivor count (T/C endpoint: mean survival time, dose: 19.2 mg/kg/injection, schedule: Q11DX001 (oral), vehicle: saline): 0 of 10
- T/C (T/C endpoint: median survival time, dose: 0.5 mg/kg/injection, schedule: Q04DX003 (ip), vehicle: saline): 132 % of control
- T/C (T/C endpoint: median survival time, dose: 1.0 mg/kg/injection, schedule: Q04DX003 (ip), vehicle: saline): 135 % of control
- survivor count (T/C endpoint: median survival time, dose: 4.0 mg/kg/injection, schedule: Q04DX003 (ip), vehicle: saline): 4 of 8
- survivor count (T/C endpoint: median survival time, dose: 8.0 mg/kg/injection, schedule: Q04DX003 (ip), vehicle: saline): 4 of 8

Compound: Cc1nc(N)nc(N)c1Cc1ccc(N=[N+]=[N-])cc1
- survivor count (T/C endpoint: mean survival time, dose: 100.0 mg/kg/injection, schedule: Q04DX002 (ip), vehicle: saline with Tween-80): 1 of 3

Compound: NC(CCl)=NCC1CCCC1
- survivor count (T/C endpoint: mean survival time, dose: 100.0 mg/kg/injection, schedule: Q04DX002 (ip), vehicle: Klucel (hydroxypropylcellulose) (HPC)): 2 of 3
- survivor count (T/C endpoint: mean survival time, dose: 200.0 mg/kg/injection, schedule: Q04DX002 (ip), vehicle: Klucel (hydroxypropylcellulose) (HPC)): 0 of 3
- survivor count (T/C endpoint: mean survival time, dose: 400.0 mg/kg/injection, schedule: Q04DX002 (ip), vehicle: Klucel (hydroxypropylcellulose) (HPC)): 0 of 3

Compound: COc1cccc(CNCc2cccc(OC)c2O)c1O
- survivor count (T/C endpoint: mean survival time, dose: 200.0 mg/kg/injection, schedule: Q01DX001 (ip), vehicle: saline): 3 of 6
- survivor count (T/C endpoint: mean survival time, dose: 400.0 mg/kg/injection, schedule: Q01DX001 (ip), vehicle: saline): 0 of 6

Compound: CCNC(C)(C)C(Cl)c1cccs1 (centres undefined)
- survivor count (T/C endpoint: mean survival time, dose: 400.0 mg/kg/injection, schedule: Q01DX009 (ip), vehicle: saline): 0 of 6
- survivor count (T/C endpoint: mean survival time, dose: 400.0 mg/kg/injection, schedule: Q04DX003 (ip), vehicle: saline): 0 of 6

Reference: PubChem BioAssay AID248 (DTP/NCI, 2004)
